This passage reports log2 fold change results from the supplement of paper PMC10849652.

Sequences of proteins named here, by UniProt entry; tags and fusion partners are left off. A change or cut given only in a name is not applied to a line headed by its entry.
UniProt O75822, whole entry, looked up: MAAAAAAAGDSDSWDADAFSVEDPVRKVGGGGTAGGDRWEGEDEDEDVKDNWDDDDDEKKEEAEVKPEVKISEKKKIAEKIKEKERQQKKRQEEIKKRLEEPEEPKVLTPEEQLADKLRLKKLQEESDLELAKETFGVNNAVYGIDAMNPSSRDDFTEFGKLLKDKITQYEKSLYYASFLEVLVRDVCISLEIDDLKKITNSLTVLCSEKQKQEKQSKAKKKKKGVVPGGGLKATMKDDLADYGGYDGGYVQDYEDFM
UniProt P32519: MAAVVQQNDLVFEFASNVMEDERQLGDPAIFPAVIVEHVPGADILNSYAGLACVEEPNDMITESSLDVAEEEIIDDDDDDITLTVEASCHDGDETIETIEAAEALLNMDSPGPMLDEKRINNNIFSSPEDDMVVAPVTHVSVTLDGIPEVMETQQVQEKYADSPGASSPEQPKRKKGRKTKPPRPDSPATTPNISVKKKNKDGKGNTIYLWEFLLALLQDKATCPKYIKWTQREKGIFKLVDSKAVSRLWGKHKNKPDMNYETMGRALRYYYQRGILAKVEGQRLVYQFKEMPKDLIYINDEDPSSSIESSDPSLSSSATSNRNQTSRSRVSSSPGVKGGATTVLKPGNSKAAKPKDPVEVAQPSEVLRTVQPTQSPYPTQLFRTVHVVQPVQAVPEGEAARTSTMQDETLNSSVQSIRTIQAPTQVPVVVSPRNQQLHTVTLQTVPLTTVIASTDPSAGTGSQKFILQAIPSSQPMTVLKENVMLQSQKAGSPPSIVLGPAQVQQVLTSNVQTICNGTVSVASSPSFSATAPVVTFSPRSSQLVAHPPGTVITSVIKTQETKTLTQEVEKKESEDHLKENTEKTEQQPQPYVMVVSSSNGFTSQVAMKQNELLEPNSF
UniProt O75354: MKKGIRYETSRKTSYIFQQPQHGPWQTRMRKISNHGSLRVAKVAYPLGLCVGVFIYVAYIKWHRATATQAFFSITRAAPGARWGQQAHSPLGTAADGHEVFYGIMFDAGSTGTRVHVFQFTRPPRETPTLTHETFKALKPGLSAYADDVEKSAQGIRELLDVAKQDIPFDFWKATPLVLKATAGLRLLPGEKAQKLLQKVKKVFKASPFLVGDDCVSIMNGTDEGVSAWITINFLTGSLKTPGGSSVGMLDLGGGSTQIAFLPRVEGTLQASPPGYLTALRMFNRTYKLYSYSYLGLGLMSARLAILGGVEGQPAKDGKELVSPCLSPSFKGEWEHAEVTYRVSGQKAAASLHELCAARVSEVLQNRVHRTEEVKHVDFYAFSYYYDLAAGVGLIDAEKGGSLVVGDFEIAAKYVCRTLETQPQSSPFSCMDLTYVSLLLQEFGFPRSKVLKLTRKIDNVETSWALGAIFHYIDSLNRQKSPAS
UniProt Q9BQI3, whole entry, looked up: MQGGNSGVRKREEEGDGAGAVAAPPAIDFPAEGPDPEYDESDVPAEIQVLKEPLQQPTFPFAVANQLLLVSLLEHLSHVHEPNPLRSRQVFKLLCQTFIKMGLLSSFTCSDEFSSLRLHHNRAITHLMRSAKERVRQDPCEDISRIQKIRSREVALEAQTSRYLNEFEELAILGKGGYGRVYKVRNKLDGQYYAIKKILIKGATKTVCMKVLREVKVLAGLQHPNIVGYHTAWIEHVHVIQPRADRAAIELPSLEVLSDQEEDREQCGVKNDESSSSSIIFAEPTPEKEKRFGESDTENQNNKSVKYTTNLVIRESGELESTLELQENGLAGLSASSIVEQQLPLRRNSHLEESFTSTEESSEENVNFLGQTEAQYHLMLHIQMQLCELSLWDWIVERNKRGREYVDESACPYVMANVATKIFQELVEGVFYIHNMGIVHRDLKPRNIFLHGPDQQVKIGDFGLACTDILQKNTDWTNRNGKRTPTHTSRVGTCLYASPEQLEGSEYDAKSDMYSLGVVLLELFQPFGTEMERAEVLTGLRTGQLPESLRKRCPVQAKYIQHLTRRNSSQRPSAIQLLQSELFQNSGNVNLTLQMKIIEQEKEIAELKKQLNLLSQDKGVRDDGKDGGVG
UniProt P19525: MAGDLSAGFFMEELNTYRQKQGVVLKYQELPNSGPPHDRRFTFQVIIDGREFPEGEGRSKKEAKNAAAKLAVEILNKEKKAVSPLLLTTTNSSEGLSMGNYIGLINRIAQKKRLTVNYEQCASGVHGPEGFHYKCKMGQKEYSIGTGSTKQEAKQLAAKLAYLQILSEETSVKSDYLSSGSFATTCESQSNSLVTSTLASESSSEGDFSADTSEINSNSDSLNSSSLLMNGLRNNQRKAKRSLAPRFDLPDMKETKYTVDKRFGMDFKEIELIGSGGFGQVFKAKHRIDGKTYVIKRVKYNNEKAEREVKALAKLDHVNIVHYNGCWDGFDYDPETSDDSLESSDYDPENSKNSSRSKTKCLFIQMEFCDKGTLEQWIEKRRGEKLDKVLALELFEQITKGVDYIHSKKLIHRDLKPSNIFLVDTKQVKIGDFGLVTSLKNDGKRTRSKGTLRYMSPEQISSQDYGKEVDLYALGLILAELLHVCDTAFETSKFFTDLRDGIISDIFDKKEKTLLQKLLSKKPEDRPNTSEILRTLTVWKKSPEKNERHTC
UniProt P41091, whole entry, looked up: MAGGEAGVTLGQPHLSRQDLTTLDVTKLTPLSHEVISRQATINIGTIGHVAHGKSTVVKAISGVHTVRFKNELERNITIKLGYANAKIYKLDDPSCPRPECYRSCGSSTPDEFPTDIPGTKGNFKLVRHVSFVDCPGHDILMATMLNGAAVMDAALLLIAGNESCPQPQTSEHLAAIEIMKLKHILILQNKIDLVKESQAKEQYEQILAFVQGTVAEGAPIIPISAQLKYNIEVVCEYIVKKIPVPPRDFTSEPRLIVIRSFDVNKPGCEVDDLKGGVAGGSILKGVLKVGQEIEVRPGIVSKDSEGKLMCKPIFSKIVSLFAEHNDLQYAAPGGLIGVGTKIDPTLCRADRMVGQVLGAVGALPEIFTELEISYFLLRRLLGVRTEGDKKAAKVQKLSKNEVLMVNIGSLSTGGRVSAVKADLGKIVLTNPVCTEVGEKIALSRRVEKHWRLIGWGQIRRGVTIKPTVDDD
UniProt P18146, whole entry, looked up: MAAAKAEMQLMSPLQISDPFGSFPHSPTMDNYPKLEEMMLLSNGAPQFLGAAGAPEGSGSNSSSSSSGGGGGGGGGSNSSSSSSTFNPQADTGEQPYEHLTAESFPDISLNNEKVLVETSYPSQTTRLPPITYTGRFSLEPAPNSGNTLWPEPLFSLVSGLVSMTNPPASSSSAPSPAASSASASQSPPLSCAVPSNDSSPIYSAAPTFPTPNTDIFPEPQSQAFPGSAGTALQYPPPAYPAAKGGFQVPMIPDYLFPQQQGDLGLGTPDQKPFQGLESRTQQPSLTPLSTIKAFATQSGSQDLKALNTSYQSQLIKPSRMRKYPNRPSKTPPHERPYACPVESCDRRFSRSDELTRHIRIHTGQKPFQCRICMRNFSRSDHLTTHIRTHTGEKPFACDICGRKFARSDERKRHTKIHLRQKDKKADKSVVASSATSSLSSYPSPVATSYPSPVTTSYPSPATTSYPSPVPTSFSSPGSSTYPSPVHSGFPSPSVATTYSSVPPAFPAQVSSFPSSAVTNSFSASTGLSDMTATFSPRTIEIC
UniProt O75071: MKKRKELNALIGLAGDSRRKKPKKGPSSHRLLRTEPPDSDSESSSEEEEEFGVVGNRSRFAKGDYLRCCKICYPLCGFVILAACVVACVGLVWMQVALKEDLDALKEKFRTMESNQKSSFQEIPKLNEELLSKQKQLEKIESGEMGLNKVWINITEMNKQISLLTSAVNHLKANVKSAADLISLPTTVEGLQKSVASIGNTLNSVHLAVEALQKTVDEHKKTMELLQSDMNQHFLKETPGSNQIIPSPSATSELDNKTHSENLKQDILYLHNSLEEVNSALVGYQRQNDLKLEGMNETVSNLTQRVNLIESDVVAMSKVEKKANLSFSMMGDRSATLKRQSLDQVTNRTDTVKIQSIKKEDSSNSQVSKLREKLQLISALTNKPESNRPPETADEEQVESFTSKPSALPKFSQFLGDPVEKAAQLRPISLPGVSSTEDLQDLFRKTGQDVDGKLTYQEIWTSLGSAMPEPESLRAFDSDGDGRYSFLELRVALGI
UniProt Q7Z2Z2: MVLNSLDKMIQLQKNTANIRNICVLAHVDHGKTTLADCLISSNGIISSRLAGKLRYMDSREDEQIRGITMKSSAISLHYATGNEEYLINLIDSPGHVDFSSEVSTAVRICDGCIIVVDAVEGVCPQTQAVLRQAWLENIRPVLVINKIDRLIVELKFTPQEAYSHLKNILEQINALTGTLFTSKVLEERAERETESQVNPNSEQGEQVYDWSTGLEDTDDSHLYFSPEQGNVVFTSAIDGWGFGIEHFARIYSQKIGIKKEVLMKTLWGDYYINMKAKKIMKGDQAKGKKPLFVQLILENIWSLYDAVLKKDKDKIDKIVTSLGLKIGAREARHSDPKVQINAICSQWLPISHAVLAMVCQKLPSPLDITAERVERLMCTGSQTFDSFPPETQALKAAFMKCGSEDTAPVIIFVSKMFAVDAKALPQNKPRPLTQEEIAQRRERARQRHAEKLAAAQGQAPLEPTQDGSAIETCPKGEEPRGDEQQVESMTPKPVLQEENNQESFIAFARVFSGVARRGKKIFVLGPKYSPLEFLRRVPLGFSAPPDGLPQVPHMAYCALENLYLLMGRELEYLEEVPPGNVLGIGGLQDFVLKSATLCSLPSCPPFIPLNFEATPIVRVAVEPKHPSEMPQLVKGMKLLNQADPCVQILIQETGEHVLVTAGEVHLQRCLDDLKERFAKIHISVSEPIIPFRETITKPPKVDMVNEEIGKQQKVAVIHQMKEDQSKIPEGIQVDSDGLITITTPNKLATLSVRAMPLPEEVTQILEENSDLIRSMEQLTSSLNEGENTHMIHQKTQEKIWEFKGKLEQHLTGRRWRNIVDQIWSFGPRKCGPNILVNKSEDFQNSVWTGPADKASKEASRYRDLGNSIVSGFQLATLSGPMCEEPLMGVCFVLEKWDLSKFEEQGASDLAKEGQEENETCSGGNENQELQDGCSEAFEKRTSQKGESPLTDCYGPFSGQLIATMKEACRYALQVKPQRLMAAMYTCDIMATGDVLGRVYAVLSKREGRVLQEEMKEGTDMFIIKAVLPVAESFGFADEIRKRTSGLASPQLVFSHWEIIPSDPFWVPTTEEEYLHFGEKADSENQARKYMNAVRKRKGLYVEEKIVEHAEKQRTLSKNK
UniProt Q9NZJ5: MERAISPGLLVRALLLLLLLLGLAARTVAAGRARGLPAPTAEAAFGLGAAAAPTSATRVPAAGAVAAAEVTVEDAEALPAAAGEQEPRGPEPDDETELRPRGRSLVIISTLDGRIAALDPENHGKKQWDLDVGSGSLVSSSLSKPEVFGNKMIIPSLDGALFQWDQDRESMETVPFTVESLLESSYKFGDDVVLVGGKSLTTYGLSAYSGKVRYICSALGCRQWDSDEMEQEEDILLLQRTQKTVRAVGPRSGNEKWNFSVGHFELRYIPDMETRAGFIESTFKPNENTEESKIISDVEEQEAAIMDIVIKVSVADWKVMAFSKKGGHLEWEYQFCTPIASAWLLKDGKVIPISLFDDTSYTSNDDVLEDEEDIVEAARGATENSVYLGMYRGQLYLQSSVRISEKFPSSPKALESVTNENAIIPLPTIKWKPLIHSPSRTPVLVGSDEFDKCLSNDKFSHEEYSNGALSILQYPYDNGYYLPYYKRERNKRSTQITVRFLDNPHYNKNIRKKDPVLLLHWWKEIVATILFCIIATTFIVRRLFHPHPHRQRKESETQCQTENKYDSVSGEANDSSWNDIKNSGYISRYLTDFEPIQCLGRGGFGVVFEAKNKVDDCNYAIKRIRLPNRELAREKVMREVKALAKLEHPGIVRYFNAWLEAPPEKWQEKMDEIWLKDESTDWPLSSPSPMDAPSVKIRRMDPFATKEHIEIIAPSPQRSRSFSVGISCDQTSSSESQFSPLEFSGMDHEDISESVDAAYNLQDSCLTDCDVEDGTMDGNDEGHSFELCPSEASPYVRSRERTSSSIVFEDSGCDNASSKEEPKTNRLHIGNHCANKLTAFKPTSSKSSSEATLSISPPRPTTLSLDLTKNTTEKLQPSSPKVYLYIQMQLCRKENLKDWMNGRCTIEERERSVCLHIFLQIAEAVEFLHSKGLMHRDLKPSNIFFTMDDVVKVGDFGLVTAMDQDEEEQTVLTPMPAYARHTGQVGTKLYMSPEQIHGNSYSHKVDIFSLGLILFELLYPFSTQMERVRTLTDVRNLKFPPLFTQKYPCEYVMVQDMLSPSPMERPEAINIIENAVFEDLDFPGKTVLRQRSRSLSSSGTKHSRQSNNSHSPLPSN
UniProt Q9NYP7: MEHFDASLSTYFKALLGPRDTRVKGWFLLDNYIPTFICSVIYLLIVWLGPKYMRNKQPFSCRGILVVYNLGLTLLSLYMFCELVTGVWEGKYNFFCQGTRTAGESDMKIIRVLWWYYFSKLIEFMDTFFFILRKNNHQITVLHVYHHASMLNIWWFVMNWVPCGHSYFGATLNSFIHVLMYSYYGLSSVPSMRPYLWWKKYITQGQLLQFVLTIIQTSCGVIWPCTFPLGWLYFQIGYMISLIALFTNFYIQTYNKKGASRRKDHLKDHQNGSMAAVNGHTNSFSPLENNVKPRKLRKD

The other results are listed elsewhere or left out.

Compound in the first test: CC(C)N(C[C@H]1O[C@@H](n2cnc3c(N)ncnc32)[C@H](O)[C@@H]1O)[C@H]1C[C@@H](CCc2nc3cc(C(C)(C)C)ccc3[nH]2)C1 [pinometostat]
Nature of the test: log2 fold change, soluble protein after heating vs DMSO (PISA); higher = thermal stabilisation; K562 cells, 10 uM, 30 min; active = over 0.2 and 3.5 SD of the protein, either way, in both replicates (recomputed). The method, boiled down: (§1)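 Aliquots of K562 cells (2×10^6 cells/mL) treated with 10 μM compound for 30 min were heated for 3 min over 48°C-58°C. After pooling and extraction in PBS with 0.5% NP-40 at 4°C, soluble protein from a 21,000xg, 90 min spin was quantified by TMTpro 16plex LC-MS/MS with channel sums equalised. Thermal stability is expressed against control samples, from duplicates, as a log2 fold change.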
Consider EIF3J (UniProt O75822), for which the log2 fold change is inactive: -0.007.
Same read-out and setting: the same measure for EIF4ENIF1 isoform 3 (UniProt Q9NRA8): inactive: 0.041.
As for ELF1 (UniProt P32519), the log2 fold change was inactive: 0.053.

Compound in the next test: CC1=C(C(CC(=O)N1)C2=CC=C(C=C2)C(F)(F)F)C(=O)NC3=C(C=C4C(=C3)C=NN4)F
Described as above. The essentials: as §1
As to EIF3G (UniProt K7ER90), the log2 fold change is inactive: 0.075.
On the same count and under the same terms, the same measure for ELL (UniProt P55199): inactive: -0.063.
On the same count and under the same terms, the same measure for ENTPD6 (UniProt O75354): inactive: -0.02; for EPB41, A0A2R8Y6D0: inactive: -0.028; for EML5 isoform 5 (UniProt Q05BV3): inactive: 0.124.
The same measure, in the same setting: the same measure for ENPP3 (UniProt O14638): inactive: 0.019.

Compound in the next test: CC1=C(C2=C(C=C1)C(=O)C3=CC=CC=C3N2CCCN)C
The description is as above. The essentials: as §1
In the case of EIF4G3 isoform 3 (UniProt O43432), the log2 fold change is inactive: 0.03.
On the same count and under the same terms, the same measure for EIF3J isoform 2 (UniProt O75822): inactive: 0.107; for EEF1AKNMT (UniProt Q8N6R0): inactive: 0.13; for EIF2AK1 (UniProt Q9BQI3): inactive: -0.114.
Take EIF2B4 (UniProt Q9UI10): the log2 fold change was inactive: 0.136.
EIF3G (UniProt K7ER90): the log2 fold change is inactive: 0.127.
Still for that read-out and setting: the same measure for EED, A0A5F9ZI63: inactive: 0.145; for EOGT (UniProt Q5NDL2): inactive: 0.003.
Same read-out and setting: the same measure for EIF2AK2 (UniProt P19525): inactive: -0.135; for ELOVL1 (UniProt Q9BW60): inactive: 0.099; for EIF2S3 (UniProt P41091): inactive: 0.195.
The same measure, in the same setting: the same measure for EGR1 (UniProt P18146): inactive: -0.472; for ELL (UniProt P55199): inactive: 0.263.
Take EEF1G isoform 2 (UniProt P26641): the log2 fold change was inactive: 0.017.
As for EIF4E2 (UniProt O60573), the log2 fold change was inactive: 0.116.
Consider EFCAB14 (UniProt O75071), for which the log2 fold change is inactive: 0.006.
For EGLN1 (UniProt Q9GZT9), the log2 fold change was inactive: -0.029.
Regarding ENTPD6 (UniProt O75354), the log2 fold change is inactive: 0.044.
The same measure, in the same setting: the same measure for EFEMP1 (UniProt Q12805): inactive: -0.184; for ELOVL7 (UniProt A1L3X0): inactive: 0.062.
As to EFL1 (UniProt Q7Z2Z2), the log2 fold change was inactive: -0.058.
Still for that read-out and setting: the same measure for EPB41, A0A2R8Y6D0: inactive: 0; for EIF2AK3 (UniProt Q9NZJ5): inactive: 0.032; for EML5 isoform 5 (UniProt Q05BV3): inactive: 0.303.
The same measure, in the same setting: the same measure for EIF3J (UniProt O75822): inactive: -0.025.
For the target ELOVL5 isoform 2 (UniProt Q9NYP7), the log2 fold change is inactive: 0.002.
Same read-out and setting: the same measure for EIF4ENIF1 isoform 3 (UniProt Q9NRA8): inactive: -0.091; for ELF1 (UniProt P32519): inactive: -0.473.
